Patent US20090099195A1 (ASTRAZENECA AB, priority 2007, published 2009)
Some results were stated once for a whole list of compounds, not compound by compound.

Target: T1, P2X3 receptors (UniProt P56373)
T1 sequence (P56373 1-397): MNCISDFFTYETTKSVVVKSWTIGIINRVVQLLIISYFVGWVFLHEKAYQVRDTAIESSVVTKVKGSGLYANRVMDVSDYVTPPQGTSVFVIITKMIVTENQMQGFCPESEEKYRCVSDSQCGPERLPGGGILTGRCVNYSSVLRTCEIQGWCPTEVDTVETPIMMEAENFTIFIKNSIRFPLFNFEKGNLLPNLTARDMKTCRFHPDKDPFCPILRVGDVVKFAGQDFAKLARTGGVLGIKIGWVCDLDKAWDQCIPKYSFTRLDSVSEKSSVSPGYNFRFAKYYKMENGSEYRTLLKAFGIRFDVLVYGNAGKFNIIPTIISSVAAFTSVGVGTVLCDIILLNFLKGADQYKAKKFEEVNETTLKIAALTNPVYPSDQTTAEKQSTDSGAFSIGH
Experiment: FLIPR antagonist assay, receptor or clone not stated (less preferred compounds)
Settings: compounds also tested

IC50, > 3.3 µM:
COCC(C)Nc1nc(N2CCN(C(C)=O)CC2)nc2c1CN(C(C)C)C2=O (centres unmarked) [2-(4-acetylpiperazin-1-yl)-4-[(2-methoxy-1-methylethyl)amino]-6-(1-methylethyl)-5,6-dihydro-7H-pyrrolo[3,4-d]pyrimidin-7-one]
CC(C)N1Cc2c(NCc3cnc4ccccc4c3)nc(N3CCC(C(=O)N(C)C)CC3)nc2C1=O [N,N-dimethyl-1-{6-(1-methylethyl)-7-oxo-4-[(quinolin-3-ylmethyl)amino]-6,7-dihydro-5H-pyrrolo[3,4-d]pyrimidin-2-yl}piperidine-4-carboxamide]
CC(C)N1Cc2c(NCc3cnc4ccccc4c3)nc(N3CCN(C(=O)OC(C)(C)C)[C@H](C)C3)nc2C1=O [tert-butyl (2R)-2-methyl-4-{6-(1-methylethyl)-7-oxo-4-[(quinolin-3-ylmethyl)amino]-6,7-dihydro-5H-pyrrolo[3,4-d]pyrimidin-2-yl}piperazine-1-carboxylate]
CCn1ncc(C(C)Nc2nc(N3CCN(C(C)=O)CC3)nc3c2CN(C(C)C)C3=O)c1C (centres unmarked) [2-(4-acetylpiperazin-1-yl)-4-{[1-(1-ethyl-5-methyl-1H-pyrazol-4-yl)ethyl]amino}-6-(1-methylethyl)-5,6-dihydro-7H-pyrrolo[3,4-d]pyrimidin-7-one]
CC(C)N1Cc2c(Nc3ccccc3N3CCOCC3)nc(N3CCOCC3)nc2C1=O [6-(1-methylethyl)-2-morpholin-4-yl-4-[(2-morpholin-4-ylphenyl)amino]-5,6-dihydro-7H-pyrrolo[3,4-d]pyrimidin-7-one]
O=C1c2nc(N3CCOCC3)nc(Nc3ccc(Cl)cc3)c2CN1C1CC1 [4-[(4-chlorophenyl)amino]-6-cyclopropyl-2-morpholin-4-yl-5,6-dihydro-7H-pyrrolo[3,4-d]pyrimidin-7-one]
CC(=O)N1CCN(c2nc3c(c(N4CCC[C@H]4C(=O)OCc4ccccc4)n2)CN(C(C)C)C3=O)CC1 [benzyl 1-[2-(4-acetylpiperazin-1-yl)-6-(1-methylethyl)-7-oxo-6,7-dihydro-5H-pyrrolo[3,4-d]pyrimidin-4-yl]-L-prolinate]
COc1ccc2c(c1)CCC2Nc1nc(N2CCN(C(C)=O)CC2)nc2c1CN(C(C)C)C2=O (centres unmarked) [2-(4-acetylpiperazin-1-yl)-4-[(5-methoxy-2,3-dihydro-1H-inden-1-yl)amino]-6-(1-methylethyl)-5,6-dihydro-7H-pyrrolo[3,4-d]pyrimidin-7-one]
CC(=O)N1CCN(c2nc3c(c(N4CCCC4CN4CCOCC4)n2)CN(C(C)C)C3=O)CC1 (centres unmarked) [2-(4-acetylpiperazin-1-yl)-6-(1-methylethyl)-4-[2-(morpholin-4-ylmethyl)pyrrolidin-1-yl]-5,6-dihydro-7H-pyrrolo[3,4-d]pyrimidin-7-one]
CC(=O)N1CCN(c2nc(NCc3cnc(C)cn3)c3c(n2)C(=O)N(C(C)C)C3)CC1 [2-(4-acetylpiperazin-1-yl)-6-(1-methylethyl)-4-{[(5-methylpyrazin-2-yl)methyl]amino}-5,6-dihydro-7H-pyrrolo[3,4-d]pyrimidin-7-one]
CC(C)N1Cc2c(NCC(c3ccccc3)c3ccccc3)nc(NCCN(C)C)nc2C1=O [2-{[2-(dimethylamino)ethyl]amino}-4-[(2,2-diphenylethyl)amino]-6-(1-methylethyl)-5,6-dihydro-7H-pyrrolo[3,4-d]pyrimidin-7-one]
CC(=O)N1CCN(c2nc(NCc3csc(-c4ccccc4)n3)c3c(n2)C(=O)N(C(C)C)C3)CC1 [2-(4-acetylpiperazin-1-yl)-6-(1-methylethyl)-4-{[(2-phenyl-1,3-thiazol-4-yl)methyl]amino}-5,6-dihydro-7H-pyrrolo[3,4-d]pyrimidin-7-one]
CC(=O)N1CCN(c2nc(NCc3cccnc3N3CCCC3)c3c(n2)C(=O)N(C(C)C)C3)CC1 [2-(4-acetylpiperazin-1-yl)-6-(1-methylethyl)-4-{[(2-pyrrolidin-1-ylpyridin-3-yl)methyl]amino}-5,6-dihydro-7H-pyrrolo[3,4-d]pyrimidin-7-one]
Cc1ccc(CN(C)c2nc(NCCN(C)C)nc3c2CN(C(C)C)C3=O)cc1 [2-{[2-(dimethylamino)ethyl]amino}-6-(1-methylethyl)-4-[methyl(4-methylbenzyl)amino]-5,6-dihydro-7H-pyrrolo[3,4-d]pyrimidin-7-one]
CC(=O)N1CCN(c2nc(NC3CCc4ccc(Cl)cc43)c3c(n2)C(=O)N(C(C)C)C3)CC1 (centres unmarked) [2-(4-acetylpiperazin-1-yl)-4-[(6-chloro-2,3-dihydro-1H-inden-1-yl)amino]-6-(1-methylethyl)-5,6-dihydro-7H-pyrrolo[3,4-d]pyrimidin-7-one]
CC(=O)N1CCc2ccc(Nc3nc(N4CCOCC4)nc4c3CN(C(C)C)C4=O)cc21 [4-[(1-acetyl-2,3-dihydro-1H-indol-6-yl)amino]-6-(1-methylethyl)-2-morpholin-4-yl-5,6-dihydro-7H-pyrrolo[3,4-d]pyrimidin-7-one]
CC(C)N1Cc2c(nc(N3CCOCC3)nc2N2CC=CC2)C1=O [4-(2,5-dihydro-1H-pyrrol-1-yl)-6-(1-methylethyl)-2-morpholin-4-yl-5,6-dihydro-7H-pyrrolo[3,4-d]pyrimidin-7-one]
CC(=O)N1CCN(c2nc3c(c(N4CCC[C@@H]4C(=O)OCc4cccc(Cl)c4)n2)CN(C(C)C)C3=O)CC1 [3-chlorobenzyl 1-[2-(4-acetylpiperazin-1-yl)-6-(1-methylethyl)-7-oxo-6,7-dihydro-5H-pyrrolo[3,4-d]pyrimidin-4-yl]-D-prolinate]
CC(=O)N1CCN(c2nc3c(c(N4CCCC4Cc4ccccn4)n2)CN(C(C)C)C3=O)CC1 (centres unmarked) [2-(4-acetylpiperazin-1-yl)-6-(1-methylethyl)-4-[2-(pyridin-2-ylmethyl)pyrrolidin-1-yl]-5,6-dihydro-7H-pyrrolo[3,4-d]pyrimidin-7-one]
CC(C)N1Cc2c(nc(N3CCOCC3)nc2N2CCCC2c2ccccn2)C1=O (centres unmarked) [6-(1-methylethyl)-2-morpholin-4-yl-4-(2-pyridin-2-ylpyrrolidin-1-yl)-5,6-dihydro-7H-pyrrolo[3,4-d]pyrimidin-7-one]
CC(=O)N1CCN(c2nc(NC(C)c3nc(-c4cccnc4)no3)c3c(n2)C(=O)N(C(C)C)C3)CC1 (centres unmarked) [2-(4-acetylpiperazin-1-yl)-6-(1-methylethyl)-4-{[1-(3-pyridin-3-yl-1,2,4-oxadiazol-5-yl)ethyl]amino}-5,6-dihydro-7H-pyrrolo[3,4-d]pyrimidin-7-one]
CC(C)N1Cc2c(NCCCN(C)C)nc(N3CCOCC3)nc2C1=O [4-{[3-(dimethylamino)propyl]amino}-6-(1-methylethyl)-2-morpholin-4-yl-5,6-dihydro-7H-pyrrolo[3,4-d]pyrimidin-7-one]
CCN(CC)C1CCN(c2nc(N3CCOCC3)nc3c2CN(C(C)C)C3=O)C1 (centres unmarked) [4-[3-(diethylamino)pyrrolidin-1-yl]-6-(1-methylethyl)-2-morpholin-4-yl-5,6-dihydro-7H-pyrrolo[3,4-d]pyrimidin-7-one]
CC(C)N1Cc2c(NC(c3ccccc3)c3ccccc3)nc(N)nc2C1=O [2-amino-4-[(diphenylmethyl)amino]-6-(1-methylethyl)-5,6-dihydro-7H-pyrrolo[3,4-d]pyrimidin-7-one]
CC(C)N1Cc2c(NCc3cnc4ccccc4c3)nc(NC3CCOCC3)nc2C1=O [6-(1-methylethyl)-4-[(quinolin-3-ylmethyl)amino]-2-(tetrahydro-2H-pyran-4-ylamino)-5,6-dihydro-7H-pyrrolo[3,4-d]pyrimidin-7-one]
CC(=O)N1CCN(c2nc(N[C@H](C)c3cccc(F)c3)c3c(n2)C(=O)N(C(C)C)C3)CC1 [2-(4-acetylpiperazin-1-yl)-4-{[(1R)-1-(3-fluorophenyl)ethyl]amino}-6-(1-methylethyl)-5,6-dihydro-7H-pyrrolo[3,4-d]pyrimidin-7-one]
CC(C)N1Cc2c(NCc3cnc4ccccc4c3)nc(N3CCC[C@H]3C(=O)N(C)C)nc2C1=O [N,N-dimethyl-1-{6-(1-methylethyl)-7-oxo-4-[(quinolin-3-ylmethyl)amino]-6,7-dihydro-5H-pyrrolo[3,4-d]pyrimidin-2-yl}-L-prolinamide]
CC(=O)N1CCN(c2nc3c(c(N4CCC(Cc5ccccc5)C4)n2)CN(C(C)C)C3=O)CC1 (centres unmarked) [2-(4-acetylpiperazin-1-yl)-4-(3-benzylpyrrolidin-1-yl)-6-(1-methylethyl)-5,6-dihydro-7H-pyrrolo[3,4-d]pyrimidin-7-one]
CC(C)N1Cc2c(Nc3cccc(Cc4ccccc4)c3)nc(N3CCOCC3)nc2C1=O [4-[(3-benzylphenyl)amino]-6-(1-methylethyl)-2-morpholin-4-yl-5,6-dihydro-7H-pyrrolo[3,4-d]pyrimidin-7-one]
